Results from PubChem BioAssay AID2685 (National Center for Advancing Translational Sciences (NCATS), 2010).
The other results are listed elsewhere or left out. These are further read-outs of the screen, such as a control signal, another cell line or another target. No call is given for them. Compounds called inactive in the main read-out are mostly missing here. Words in brackets tell the shape of the fitted curve; partial curves, single points and poor fits give uncertain potencies.

Assay: qHTS Assay for Lipid Storage Modulators in Drosophila S3 Cells;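 as to cell number change: cells counted by Cell Tracker Red CMTPX staining in the red channel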
Details: BODIPY lipid droplet fluorescence, 18-24 h; for cell number change: measured here: cell count max response, cells fed with added oleic acid
Method in brief: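 Drosophila S3 cells got compounds at several concentrations plus oleic acid (400 uM solution). Laser-scanning cytometry with 488 nm excitation read lipid droplets at 500-530 nm and cells at 575-640 nm. Percent activity was relative to 20 uM Triacsin C.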

[1] = measured here: lipid fluorescence (Fed channel) AC50, cells fed with added oleic acid
[2] = measured here: cell number channel AC50, cells fed with added oleic acid

Structure (SMILES) | cell number change | AC50 [1] | AC50 [2]
O=C(O)CCN(CCC(=O)O)S(=O)(=O)c1ccccc1 | -24.1% | 16400 nM [falling, single point] | 
COc1ccc(N=C2NC(=O)/C(=C/C=C/c3ccccc3)S2)cc1 | 5.84% |  | 820 nM [rising, single point]
Cc1cc(CN(C)C(=O)c2cc(COc3ccc(C)c(C)c3)on2)on1 | -17% | 29100 nM [falling, single point] | 
CCCNC(=O)c1onc(CSc2ccc(F)cc2)c1C(=O)NCCOC | 4.88% | 1030 nM [falling, full curve] | 
O=C(/C=C\c1cn(-c2ccccc2)nc1-c1cccs1)N1CCOCC1 |  | 130 nM [rising, full curve, poor fit] | 
CCOc1ccc(NS(=O)(=O)c2ccc(NS(C)(=O)=O)cc2)cc1 | -15.7% |  | 
Clc1cnc(N/N=C/c2cccs2)c(Cl)c1 | -8.09% | 580 nM [rising, partial curve, poor fit] | 
O=c1[nH]c(=O)n(Cc2ccco2)c2c1C(C(F)(F)F)(C(F)(F)F)N=C(c1ccco1)N2 | 43.9% |  | 2590 nM [rising, full curve]
CC(OC(=O)Cn1cnc2c1c(=O)n(C)c(=O)n2C)C(=O)c1ccccc1 (stereo unspecified) | -29.5% | 29100 nM [falling, single point] | 
O=C(Nc1ccccc1)c1sc(Cl)nc1-c1ccccc1 | 72.6% | 29100 nM [rising, single point] | 116 nM [rising, full curve]
O=C(CC1CCCCC1)NCC1CCCO1 (stereo unspecified) | -4.6% | 731 nM [falling, full curve] | 146 nM [falling, full curve, poor fit]
CC1CC(=O)N(CC(=O)Nc2ccc(F)cc2F)c2ccccc2S1(=O)=O (stereo unspecified) | -18.7% |  | 
CCSc1nnc(CCNC(=O)OC(C)(C)C)o1 | -29.5% | 20600 nM [falling, partial curve] | 
C=CCN1C(=O)/C(=C\c2ccco2)C(C(=O)OC)=C1C | -12.2% | 184 nM [falling, full curve, poor fit] | 
CC(NC(=O)COc1ccc(Br)cc1)C1CCCO1 (stereo unspecified) | -3.2% | 1160 nM [rising, full curve] | 
Cn1c(SCC(=O)N2CCCC2)nnc1-c1ccc2c(c1)OCO2 |  | 29100 nM [rising, single point] | 

Single records, from the list above:
CC(NC(=O)COc1ccc(Br)cc1)C1CCCO1 (stereo unspecified) is entered as cell number change: -3.2%; AC50 [1]: 1160 nM [rising, full curve]
Cn1c(SCC(=O)N2CCCC2)nnc1-c1ccc2c(c1)OCO2 is entered as AC50 [1]: 29100 nM [rising, single point]

Additional results

Structure (SMILES) | cell number change | AC50 [1] | AC50 [2]
CCN(Cc1ccccc1)C(=O)COC(=O)CNS(=O)(=O)c1ccc(C)cc1 | -12.4% | 23100 nM [falling, single point] | 
O=C(NCCCNC(=O)c1ccco1)c1ccc(Cl)cc1 | -3.91% |  | 
Cc1cccc(NC(=O)C2CCCN(C(=O)Nc3ccc(F)cc3)C2)c1 (stereo unspecified) | 25.6% | 11600 nM [rising, partial curve] | 
Cn1cc(C(=O)N/N=C/c2cccc([N+](=O)[O-])c2)c2ccccc21 |  | 1840 nM [rising, partial curve, poor fit] | 
CCNC(=S)Nc1ccc(OC(F)(F)F)cc1 | 12.8% | 259 nM [falling, single point] | 
COc1ccc(-n2nc([N+](=O)[O-])c(=NCc3ccco3)n2O)cc1 | -30.8% | 1640 nM [falling, partial curve] | 820 nM [falling, full curve]
CCCCNC(=O)CCn1c(=S)[nH]c2cc3c(cc2c1=O)OCO3 | -7.18% |  | 
Cc1nc(=S)n(-c2ccccc2)[nH]1 | -93.6% |  | 29100 nM [falling, single point]
O=C(NNC(=O)c1ccc(F)cc1)c1ccncc1 | 8.76% | 580 nM [rising, single point] | 
Cc1csc(=O)n1CCC(=O)OCc1nnc(-c2ccc(Cl)cc2)o1 |  | 6510 nM [falling, single point] | 
COc1ccc(NC2=CC(c3ccc(F)cc3)N(c3ccc(OC)cc3)C2=O)cc1 (stereo unspecified) | -0.249% |  | 
O=C(C1=C(O)C(=O)N(CCCn2ccnc2)C1c1cccc(Br)c1)c1ccco1 (stereo unspecified) | 10.8% | 29100 nM [rising, partial curve, poor fit] | 
O=C(NNC(=O)c1c(O)c2ccccc2[nH]c1=O)c1ccccc1Br | -3.42% | 6510 nM [falling, single point] | 
Cc1onc(-c2ccccc2)c1C(=O)NCc1ccccc1F | -3.95% | 5620 nM [rising, single point] | 
CC(=O)CCc1c(C)[nH]c2ccc(NC(C)=O)cc2c1=O | -23.2% | 103 nM [falling, full curve, poor fit] | 
